Some entries share one result that the patent states for a list of compounds. At least one structure is not confirmed: it was looked up by name or label, or the drawing left a doubt.
Assays:
Alternaria brassicae = assay: In vivo test on Alternaria brassicae (leaf spot of crucifers); settings: dose of 500 ppm; radish plants sprayed 24 hours before contamination; grading 6 to 7 days after the contamination, in comparison with the control plants
Sphaerotheca fuliginea = assay: In vivo test on Sphaerotheca fuliginea (cucurbit powdery mildew); settings: dose of 500 ppm; gherkin plants sprayed 24 hours before contamination; grading (% of efficacy) 21 days after the contamination, in comparison with the control plants
[1] = tested on: Puccinia recondita f. Sp. tritici; assay: In vivo test on Puccinia recondita f. Sp. tritici (wheat brown rust); settings: dose of 500 ppm; wheat plants sprayed 24 hours before contamination; grading 10 days after the contamination, in comparison with the control plants
[2] = tested on: Mycosphaerella graminicola; assay: In vivo test on Mycosphaerella graminicola (wheat leaf spot); settings: dose of 500 ppm; wheat plants sprayed 24 hours before contamination; grading (% of efficacy) 21 to 28 days after the contamination, in comparison with the control plants
Pyrenophora teres = assay: In vivo test on Pyrenophora teres (barley net blotch); settings: dose of 500 ppm; barley plants sprayed 24 hours before contamination; grading 12 days after the contamination, in comparison with the control plants

Cc1ccc(C(F)(F)F)c(CN(C(=S)c2c(C)nn(C)c2F)C2CC2)c1 [Compound 16]
at least 70%: good protection (at least 70%) (Alternaria brassicae) | good (at least 70%) or total protection (Sphaerotheca fuliginea) | good (at least 70%) or total protection [1] | good (at least 70%) or total protection [2] | good (at least 70%) or total protection (Pyrenophora teres)

Cc1nn(C)c(F)c1C(=S)N(Cc1ccccc1C[Si](C)(C)C)C1CC1 [Compound 21]
at least 70%: good protection (at least 70%) (Alternaria brassicae) | good (at least 70%) or total protection (Sphaerotheca fuliginea) | good (at least 70%) or total protection [1] | good (at least 70%) or total protection [2] | good (at least 70%) or total protection (Pyrenophora teres)

Cc1nn(C)c(F)c1C(=S)N(Cc1cc(Cl)ccc1Br)C1CC1 [Compound 22]
at least 70%: good protection (at least 70%) (Alternaria brassicae) | good (at least 70%) or total protection (Sphaerotheca fuliginea) | good (at least 70%) or total protection [1] | good (at least 70%) or total protection [2] | good (at least 70%) or total protection (Pyrenophora teres)

Cc1nn(C)c(F)c1C(=S)N(Cc1ccccc1CC(C)C)C1CC1 [Compound 23]
at least 70%: good protection (at least 70%) (Alternaria brassicae) | good (at least 70%) or total protection (Sphaerotheca fuliginea) | good (at least 70%) or total protection [1] | good (at least 70%) or total protection [2] | good (at least 70%) or total protection (Pyrenophora teres)

Cc1nn(C)c(F)c1C(=S)N(Cc1ccccc1CCC(C)C)C1CC1 [Compound 24]
at least 70%: good protection (at least 70%) (Alternaria brassicae) | good (at least 70%) or total protection (Sphaerotheca fuliginea) | good (at least 70%) or total protection [1] | good (at least 70%) or total protection [2] | good (at least 70%) or total protection (Pyrenophora teres)

Cc1nn(C)c(F)c1C(=S)N(Cc1c(C(F)(F)F)ccc(Cl)c1F)C1CC1 [Compound 25]
at least 70%: good protection (at least 70%) (Alternaria brassicae) | good (at least 70%) or total protection (Sphaerotheca fuliginea) | good (at least 70%) or total protection [1] | good (at least 70%) or total protection [2] | good (at least 70%) or total protection (Pyrenophora teres)

CCc1nn(C)c(F)c1C(=S)N(Cc1c(C(F)(F)F)ccc(Cl)c1F)C1CC1 [Compound 29]
at least 70%: good protection (at least 70%) (Alternaria brassicae) | good (at least 70%) or total protection (Sphaerotheca fuliginea) | good (at least 70%) or total protection [1] | good (at least 70%) or total protection [2] | good (at least 70%) or total protection (Pyrenophora teres)

Cc1ccc(C(F)(F)F)c(CN(C(=S)c2cn(C)nc2C(F)F)C2CC2)c1 [Compound 32]
at least 70%: good protection (at least 70%) (Alternaria brassicae) | good (at least 70%) or total protection (Sphaerotheca fuliginea) | good (at least 70%) or total protection [1] | good (at least 70%) or total protection [2] | good (at least 70%) or total protection (Pyrenophora teres)

Cn1cc(C(=S)N(Cc2c(Cl)cccc2C(F)(F)F)C2CC2)c(C(F)F)n1 [Compound 34]
at least 70%: good protection (at least 70%) (Alternaria brassicae) | good (at least 70%) or total protection (Sphaerotheca fuliginea) | good (at least 70%) or total protection [1] | good (at least 70%) or total protection [2] | good (at least 70%) or total protection (Pyrenophora teres)

Cn1cc(C(=S)N(Cc2cc(Cl)ccc2C(F)(F)F)C2CC2)c(C(F)F)n1 [Compound 36]
at least 70%: good protection (at least 70%) (Alternaria brassicae) | good (at least 70%) or total protection (Sphaerotheca fuliginea) | good (at least 70%) or total protection [1] | good (at least 70%) or total protection [2] | good (at least 70%) or total protection (Pyrenophora teres)

Cn1cc(C(=S)N(Cc2cc(Cl)ccc2Br)C2CC2)c(C(F)F)n1 [Compound 42]
at least 70%: good protection (at least 70%) (Alternaria brassicae) | good (at least 70%) or total protection (Sphaerotheca fuliginea) | good (at least 70%) or total protection [1] | good (at least 70%) or total protection [2] | good (at least 70%) or total protection (Pyrenophora teres)
